According to paper PMC5996148:
The other results are listed elsewhere or left out. For some of these results: The exact form of the protein is not confirmed.

Protein sequences, listed by entry. Tags and fused reporters are not part of them. Lines headed by an entry give the natural chain unless they say otherwise; changes in a name come on top.
UniProt Q9BRS8: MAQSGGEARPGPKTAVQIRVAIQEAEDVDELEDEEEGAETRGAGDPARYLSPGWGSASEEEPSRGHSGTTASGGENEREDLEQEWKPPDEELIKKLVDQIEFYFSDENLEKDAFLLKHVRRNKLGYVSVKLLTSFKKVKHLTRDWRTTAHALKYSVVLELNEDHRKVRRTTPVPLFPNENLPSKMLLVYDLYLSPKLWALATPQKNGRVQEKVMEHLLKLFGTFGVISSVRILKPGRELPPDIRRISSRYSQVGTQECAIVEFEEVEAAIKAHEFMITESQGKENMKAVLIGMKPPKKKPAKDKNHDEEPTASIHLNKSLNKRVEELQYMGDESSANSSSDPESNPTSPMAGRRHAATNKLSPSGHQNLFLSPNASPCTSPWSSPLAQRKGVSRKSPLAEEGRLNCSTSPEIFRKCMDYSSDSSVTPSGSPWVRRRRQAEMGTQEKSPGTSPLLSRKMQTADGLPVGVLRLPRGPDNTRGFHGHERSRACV

Experiments:
Test in all cases: protein microarray (ProtoArray v5.0), streptavidin-Alexa Fluor 647
Settings in all cases: 3'-biotin; 20 mM Tris (pH 7.5), 5 mM MgCl2, 100 mM KCl, 0.1% Tween-20, A/T-rich and random oligonucleotide blockers; temperature not stated; high values mean tight binding
[1] = system: Kinesin light chain 1 (human)
[2] = system: Kinesin light chain 3 (human)
[3] = system: Kinesin-like protein KIF26B (human)
L-asparaginase (human) = system: L-asparaginase (human)
LACRT (human) = system: LACRT (human)
LACTB2 (human) = system: LACTB2 (human)
LAIR2 (human) = system: LAIR2 (human)
LANCL2 (human) = system: LANCL2 (human)
LARP1 = LARP1 (UniProt Q6PKG0)
LARP6 = LARP6 (UniProt Q9BRS8)

GGGAGGCTGAGGCAGG [G4-1 biotinylated (PQS2)]
binding signal [1]: -0.337 z-score | binding signal [2]: -0.345 z-score | binding signal [3]: -0.314 z-score | binding signal (L-asparaginase (human)): -0.335 z-score | binding signal (LACRT (human)): -0.304 z-score | binding signal (LACTB2 (human)): -0.353 z-score | binding signal (LAIR2 (human)): -0.327 z-score | binding signal (LANCL2 (human)): -0.316 z-score | binding signal (LARP1): 4.49 z-score | binding signal (LARP6): 3.99 z-score
